Here are results for 15 molecules from US20110002926A1.

The labels stand for the following.
B1: chimeric AP33 antibody (Vh/Vl) (antibody, V domains shown)
VH: EVQLQESGPSLVKPSQTLSLTCSVTGDSITSGYWNWIRKFPGNKLEYMGYISYSGSTYYNLSLRSRISITRDTSKNQYYLQLNSVTTEDTATYYCALITTTTYAMDYWGQGTSVTVS
VL: NIVLTQSPVSLAVSLGQRATISCRASESVDGYGNSFLHWFQQKPGQPPKLLIYLASNLNSGVPARFSGSGSRTDFTLTIDPVEADDAATYYCQQNNVDPWTFGGGTKLEIK
B2: RHb-h/Vl (humanized heavy chain RHb-h with chimeric AP33 light chain) (antibody, V domains shown)
VH: QVQLQESGPGLVKPSETLSLTCTVSGDSITSGYWNWIRQPPGRALEYMGYISYSGSTYYNLSLRSRITISRDTSKNQYSLRLSSVTAADTAMYYCALITTTTYAMDYWGQGTTVTVS
VL: B1 VL
B3: RHA/Vl (humanized heavy chain RHA with chimeric AP33 light chain) (antibody, human IgG1, V domains shown)
VH: B2 VH with T30S, Y47W, M48I, I67V, R71V, Y78F, L97R
VL: B1 VL
B4: RHI/Vl (humanized heavy chain RHI with chimeric AP33 light chain) (antibody, human IgG1, V domains shown)
VH: B2 VH with Q39K
VL: B1 VL
B5: humanized AP33 antibody RHI/RK2bc (antibody, human IgG1, V domains shown)
VH: B2 VH with Q39K
VL: EIVLTQSPSSLSASVGDRVTITCRASESVDGYGNSFLHWFQQKPGKAPKLLIYLASNLNSGVPSRFSGSGSRTDFTLTISSLQPEDFATYYCQQNNVDPWTFGQGTKLEIK
B6: humanized AP33 antibody RHA/RK2bc (antibody, human IgG1, V domains shown)
VH: B2 VH with T30S, Y47W, M48I, I67V, R71V, Y78F, L97R
VL: B5 VL
B7: humanized AP33 antibody RHb-h/RK2bc (antibody, V domains shown)
VH: B2 VH
VL: B5 VL
B8: humanized AP33 antibody RH-F/RK2bc (antibody, V domains shown)
VH: B2 VH with R71V
VL: B5 VL
B9: AP33 RH-D/RK2bc (antibody, V domains shown)
VH: B2 VH with M48I
VL: B5 VL
B10: humanized AP33 antibody RH-H/RK2bc (antibody, V domains shown)
VH: B2 VH with L97R
VL: B5 VL
B11: humanized AP33 antibody RH-C/RK2bc (antibody, V domains shown)
VH: QVQLQESGPGLVKPSETLSLTCTVSGDSITSGYWNWIRQPPGRALEWMGYISYSGSTYYNLSLRSRITISRDTSKNQYSLRLSSVTAADTAMYYCALITTTTYAMDYWGQGTTVTVSS
VL: B5 VL
B12: humanized AP33 antibody RH-G/RK2bc (antibody, V domains shown)
VH: B2 VH with Y78F
VL: B5 VL
B13: AP33 RH-B/RK2bc (antibody, V domains shown)
VH: B11 VH with T30S, W47Y
VL: B5 VL
B14: AP33 RH-E/RK2bc (antibody, V domains shown)
VH: B2 VH with I67V
VL: B5 VL
B15: Vh/RK2bc (antibody, V domains shown)
VH: B1 VH
VL: B5 VL

Positions count from the first letter of the chain named. These are yes or no findings as the source states them, for the method shown. Some results given as binding are weak or reduced against the parent protein; the word gives no strength.

One assay deals with peptide H6 (AP33 mimotope). The assay can be described thus: peptide ELISA, COS7 supernatants. A general note: An ELISA detects its analyte on a solid surface through an enzyme-linked reagent.
Take B1: the binding entry is listed as “binds”.

On to B2, for which the binding result is “binds”.

Turning to B3, the binding result is listed as “binds”.

For B4, the binding entry is “binds”.

For the molecule B5, the binding result was “binds”.

Regarding B6, the binding entry is “binds”.

On to B7, for which the binding result was “binds”.

The next assay deals with peptide H6 (AP33 mimotope). The assay can be described thus: peptide ELISA, biotinylated peptide on streptavidin, COS7 supernatant.
Take B1: the binding entry is listed as “binds”.

Turning to B2, the binding entry is given as “binds”.

For B4, the binding entry was “binds”.

Turning to B5, the binding entry was “binds”.

The target of a further assay is Peptide D3. The assay can be described thus: peptide ELISA, biotinylated peptide on streptavidin, COS7 supernatant, OD 655 nm.
B1: the binding result is “binds”.

For B2, the binding entry is given as “binds”.

Turning to B8, the binding result is “binds”.

Consider B9, for which the binding result was “binds”.

As to B10, the binding result is “binds”.

Take B11: the binding result is listed as “binds”.

For B12, the binding entry is on record as “binds”.

Turning to B7, the binding result is reported as “binds”.

For the molecule B13, the binding result is given as “binds”.

For the molecule B14, the binding entry is on record as “binds”.

The target in another assay is peptide H6 (AP33 mimotope). Described as above.
For B1, the binding result is “binds”.

For the molecule B2, the binding entry is “binds”.

Turning to B3, the binding entry is listed as “binds”.

For B15, the binding result is listed as “binds”.

As to B6, the binding entry is on record as “binds”.

Take B8: the binding entry was “binds”.

Regarding B9, the binding result is listed as “binds”.

Consider B10, for which the binding entry is reported as “binds”.

With B11, the binding result was “binds”.

On to B12, for which the binding entry is on record as “binds”.

For B7, the binding result is “binds”.

On to B13, for which the binding result is “binds”.

With B14, the binding result is recorded as “binds”.

The target in the next assay is E2 peptide B1. The assay is described as above.
On to B1, for which the binding entry is listed as “binds”.

The next assay addresses E2 peptide C2. The description is as above.
As to B1, the binding entry is “binds”.

For B9, the binding result is given as “binds”.

On to B11, for which the binding result was “binds”.

For B13, the binding result is “binds”.

For another assay, the target named is E2 peptide G3. The description is as above.
With B1, the binding entry is reported as “binds”.

For B8, the binding result is recorded as “binds”.

Turning to B9, the binding result was “binds”.

As to B10, the binding entry is recorded as “binds”.

Regarding B11, the binding entry is “binds”.

For B12, the binding result is “binds”.

With B7, the binding result is on record as “binds”.

For the molecule B13, the binding entry was “binds”.

As to B14, the binding result is given as “binds”.

The target in another assay is Peptide D3. The assay can be described thus: peptide ELISA, signal as percent of maximum H6 binding.
Regarding B1, the binding result is listed as “binds”.

Turning to B8, the binding result is on record as “binds”.

B9: the binding entry is listed as “binds”.

With B10, the binding entry is “binds”.

On to B11, for which the binding entry was “binds”.

B12: the binding result is reported as “binds”.

As for B7, the binding entry is “binds”.

B13: the binding result is listed as “binds”.

As for B14, the binding entry is reported as “binds”.

In the next assay the target is E2 peptide B1. Described as above.
For B1, the binding result was “binds”.

The target in the next assay is E2 peptide C2. The assay is described as above.
For B1, the binding result is listed as “binds”.

As for B9, the binding entry is reported as “binds”.

Consider B11, for which the binding entry is “binds”.

As to B13, the binding result was “binds”.

A further assay has as its target E2 peptide G3. The description is as above.
B1: the binding result is reported as “binds”.

For the molecule B8, the binding entry was “binds”.

Consider B9, for which the binding result was “binds”.

B10: the binding entry is “binds”.

Regarding B11, the binding entry is listed as “binds”.

For B12, the binding entry is recorded as “binds”.

Consider B7, for which the binding entry is recorded as “binds”.

In the case of B13, the binding result is listed as “binds”.

For the molecule B14, the binding entry was “binds”.

The next assay addresses E2 peptide C2. The assay is described as follows: peptide ELISA, COS7 supernatants, heavy chain paired with RK2bc.
As for B11, the binding result is recorded as “binds”.

A further assay deals with E2 peptide G3. The description is as above.
Regarding B11, the binding result is “binds”.
